Data published in article PMC6181423.
These are yes or no findings as the source states them, for the method shown. In cells and extracts the contact can be indirect. Some entries that bind do so weakly or less than the wild type.

Target: T1, Tem1 (S. cerevisiae) (UniProt P38987)
T1 sequence: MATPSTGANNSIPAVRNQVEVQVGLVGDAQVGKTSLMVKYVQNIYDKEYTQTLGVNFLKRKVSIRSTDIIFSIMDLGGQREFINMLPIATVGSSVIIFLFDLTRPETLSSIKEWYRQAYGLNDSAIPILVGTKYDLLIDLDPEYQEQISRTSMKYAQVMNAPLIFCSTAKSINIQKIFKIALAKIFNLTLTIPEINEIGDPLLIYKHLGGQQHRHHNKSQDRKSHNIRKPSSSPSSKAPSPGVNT
Experiment: co-IP; whole cell extracts of YL1C strains grown in YPD to OD600 1.0; dynabeads protein G with antibody; IP lysis buffer 50 mM HEPES-KOH pH 7.5, 140 mM NaCl, 1 mM EDTA, 1% Triton X-100; for Cdc15/Tem1 in YL1C, YL1C Δamn1 and with overexpressed Amn1^368D or Amn1^368V

B1: Cdc15 (protein, UniProt P27636 1-974)
chain: MNSMADTDRVNLTPIQRASEKSVQYHLKQVIGRGSYGVVYKAINKHTDQVVAIKEVVYENDEELNDIMAEISLLKNLNHNNIVKYHGFIRKSYELYILLEYCANGSLRRLISRSSTGLSENESKTYVTQTLLGLKYLHGEGVIHRDIKAANILLSADNTVKLADFGVSTIVNSSALTLAGTLNWMAPEILGNRGASTLSDIWSLGATVVEMLTKNPPYHNLTDANIYYAVENDTYYPPSSFSEPLKDFLSKCFVKNMYKRPTADQLLKHVWINSTENVKVDKLNKFKEDFTDADYHWDADFQEEKLNISPSKFSLAAAPAAWAENNQELDLMPPTESQLLSQLKSSSKPLTDLHVLFSVCSLENIADTIIECLSRTTVDKRLITAFGSIFVYDTQHNHSRLRLKFIAMGGIPLIIKFEHLAKEFVIDYPQTLIECGIMYPPNFASLKTPKYILELVYRFYDLTSTAFWCRWCFKHLDISLLLNNIHERRAQSILLKLSSYAPWSFEKILPSLIDSKLKKKILISPQITYVVFKSINYMITTNDDKIHKSAIPSSSSLPLSSSPTRNSPVNSVQSPSRSPVHSLMATRPSSPMRHKSISNFPHLTISSKSRLLIELPEGFFTWLTSFFVDMAQIKDLSVLKYFTKLCYLTVHINSTFLNDLLDNDAFFAFIRNIDTIIPFIDDAKTAAFIWKQITAICVEMSLDMDQMSASLFSTAMNFIRKKNNTSISGLEIILNCLHFTLRNVNDDVAPTVGSSESHSVFLIKVNNDAAIELPIDQLVDLFYALNDDDVNLSKLISIFTKICSLPGFENLTINIIFHPNFYEKIVSFFDTYFNSLLIQIDLLKFIKLIFSKSLLKLYDYTGQPDPIKQTEPNRRNKATVFKLRAILVQITEFLNNNWNKDVPKRNSNQVGGDSVLICQLCEDIRSLSKKGSLQKVSSVTAAIGSSPTKDERSNLRSSKDKSDGFSVPITTFQT
- binding: binds
